PubChem BioAssay AID504786, Drosophila RNAi Screening Center, 2011
The deposit covers about 21,000 reagents; this is an unselected part of those with a known target gene and a result. 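Primary screen; positive scores mean lost reporter signal, so the sign may be inverted from the usual convention.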 A plus sign joins genes that one reagent is predicted to hit. Not all columns of the deposit are shown. Reagent sequences are not shown.

Test: 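Knock-downs reducing HIF reporter induction by the iron chelator DFO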 (primary screen)
System: Drosophila S2 cells with a stable HIF luciferase reporter
Reagents: long dsRNA against Drosophila genes, about 0.2 µg dsRNA per well of a 384-well plate
Duration: three days of knock-down, then 20 h of DFO before reading
Treatment: desferrioxamine (DFO) at 100 µM, an iron chelator that mimics hypoxia, for 20 h
Measured: 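Firefly luciferase driven by the mouse ldh-a hypoxia-response element, measured after 20 h of 100 µM DFO; z-scores per plate, higher means more signal lost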
Direction: z-score: higher = stronger loss of HIF reporter signal

no.	target	dsRNA	z-score, replicate 1	z-score, replicate 2	z-score, replicate 3
1	CG34039 (GeneID 3885643)	DRSC09318	0.4	0	
2	CG17982 (GeneID 31739)	DRSC18143	-0.2	-0.6	
3	dnr1 (GeneID 37575)	DRSC03948	-0.1	0.5	
4	dnr1 (GeneID 37575)	DRSC04122	-0.3	-0.3	
5	Mst57Da + alpha4GT2	DRSC13732	-0.1	-0.1	
6	CG10914 (GeneID 37075)	DRSC06010	-0.4	-0.3	
7	Impbeta11 (GeneID 36732)	DRSC07525	0	-0.1	
8	l(2)SH0834 (GeneID 34386)	DRSC02854	0	-0.2	
9	dpy (GeneID 318824)	DRSC00233	-0.1	-0.4	
10	dpy (GeneID 318824)	DRSC00234	-0.1	-0.1	
11	dpy (GeneID 318824)	DRSC00472	-0.2	-0.4	
12	Hexim (GeneID 41778)	DRSC15490	-0.2	-0.4	
13	Os-C (GeneID 40942)	DRSC16778	-0.1	-0.3	
14	eIF3f2 (GeneID 35547)	DRSC04903	-0.3	-0.4	
15	ArfGAP1 (GeneID 39417)	DRSC11173	0	0	
16	CG11892 (GeneID 43053)	DRSC14428	-0.2	-0.4	
17	scat (GeneID 47942)	DRSC02722	-0.3	-0.4	
18	CG18063 (GeneID 34943)	DRSC01968	-0.3	-0.3	
19	CG13833 (GeneID 42718)	DRSC14683	-0.4	-0.1	
20	CG4597 (GeneID 38604)	DRSC10432	-0.2	-0.4	
21	Or98a (GeneID 43341)	DRSC16774	-0.3	-0.7	
22	Ptx1 (GeneID 43664)	DRSC16804	0	0.4	
23	CG14132 (GeneID 50290)	DRSC10136	-0.3	-0.4	
24	lva (GeneID 31350)	DRSC18403	-0.1	-0.1	
25	CG5543 (GeneID 37768)	DRSC04511	-0.3	0.1	
26	eIF4A (GeneID 33835)	DRSC03526	8.6	5	
27	Hpd (GeneID 40263)	DRSC11670	-0.3	-0.3	
28	Mhcl (GeneID 41955)	DRSC13130	1.1	0.3	
29	Mhcl (GeneID 41955)	DRSC14216	-0.3	-0.5	
30	Mhcl (GeneID 41955)	DRSC16753	-0.2	-0.5	
31	Strump (GeneID 39766)	DRSC09872	-0.2	-0.1	
32	CG7695 (GeneID 42234)	DRSC16289	-0.8	-0.7	
33	CG46301 (GeneID 34829)	DRSC01916	-0.3	-0.6	-0.8
34	Dhc98D (GeneID 43379)	DRSC16645	-0.4	0.1	

Records listed so far whose target name starts with E or e:
target	dsRNA	z-score, replicate 1	z-score, replicate 2	z-score, replicate 3
eIF3f2 (GeneID 35547)	DRSC04903	-0.3	-0.4	
eIF4A (GeneID 33835)	DRSC03526	8.6	5	
